Laboratory results: PubChem BioAssay AID1671190 (National Center for Advancing Translational Sciences (NCATS), 2021)
Where “and” joins values, the source holds several entries; their conditions need not be identical. Equal entries are not always repeated. Screen size: about 580,000 compounds; about 6,100 (1.1%) were called active. This list was built around the results that the source calls inconclusive (neither active nor inactive); the mix of calls is not that of the screen. Calls come from the whole dose curve; as a rule, active = well fitted inhibition curve with a large enough effect; inconclusive = small, poorly fitted or top-dose-only effect, or another doubt; inactive = no such curve, though single readings can be large or run the other way. A potency beside an inconclusive call is a rough fit, not a confirmed value.

Protein sequences, listed by entry. Tags and fused reporters are not part of them. Lines headed by an entry give the natural chain unless they say otherwise; changes in a name come on top.
UniProt P18054: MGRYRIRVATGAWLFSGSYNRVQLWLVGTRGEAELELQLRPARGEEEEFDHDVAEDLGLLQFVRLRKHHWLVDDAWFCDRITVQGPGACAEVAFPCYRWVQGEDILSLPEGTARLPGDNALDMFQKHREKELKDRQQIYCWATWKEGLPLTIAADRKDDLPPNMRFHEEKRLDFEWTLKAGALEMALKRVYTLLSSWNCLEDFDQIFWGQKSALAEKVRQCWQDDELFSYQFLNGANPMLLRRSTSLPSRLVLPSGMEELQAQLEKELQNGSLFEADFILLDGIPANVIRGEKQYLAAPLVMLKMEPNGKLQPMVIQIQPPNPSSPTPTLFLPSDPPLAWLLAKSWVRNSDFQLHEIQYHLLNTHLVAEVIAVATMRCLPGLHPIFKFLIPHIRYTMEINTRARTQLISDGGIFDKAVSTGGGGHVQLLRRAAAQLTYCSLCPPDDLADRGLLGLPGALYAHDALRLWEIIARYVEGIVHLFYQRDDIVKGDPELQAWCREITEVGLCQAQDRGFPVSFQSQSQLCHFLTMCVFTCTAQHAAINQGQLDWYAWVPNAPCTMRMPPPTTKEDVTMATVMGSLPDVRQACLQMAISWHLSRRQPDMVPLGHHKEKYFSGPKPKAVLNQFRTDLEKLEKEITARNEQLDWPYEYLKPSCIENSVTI

molecular target: Polyunsaturated fatty acid lipoxygenase ALOX12 (Homo sapiens) (UniProt P18054); assay: Primary qHTS assay for inhibitors of human arachidonate 12S-lipoxygenase (ALOX12): Round 2; settings: purified 12hLO, xylenol orange hydroperoxide absorbance; series mostly up to 108 µM
Method in brief: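 Purified human 12hLO at 150 nM in 25 mM Hepes, 0.01% Triton X-100, pH 7.0, preincubated 15 min at room temperature with compound. Reaction started with 40 uM arachidonic acid, 30 min at room temperature. Hydroperoxide measured by Fe-xylenol orange, 573/405 nm absorbance ratio.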
Potency is the fitted concentration of half-maximal effect.

| Structure (SMILES) | Potency |
| --- | --- |
| O=S(=O)(Nc1nc(-c2ccco2)c(-c2ccco2)s1)c1ccc(F)cc1F | active: 7.94 µM |
| Cc1ccc(/C=C/C(=O)c2c(C)nc3ccc(Cl)cc3c2-c2ccccc2)o1 | inconclusive: 1.58 µM [inhibitor, full curve, poor fit] |
| O=c1c2sccc2[nH]c(=S)n1-c1ccccc1 | inconclusive: 50.1 µM [inhibitor, partial curve, poor fit] |
| c1csc(-c2nc(N3CCCC3)c3ccccc3n2)c1 | inactive |
| O=C(c1cccc(Cl)c1)N1CCC(c2nn(-c3ccc(F)cc3)c(=O)[nH]2)CC1 | inconclusive: 39.8 µM [inhibitor, partial curve] |
| O=C(Nc1nc(-c2cccs2)cs1)C1CC(=O)N(c2ccccc2F)C1 (stereo not drawn) | inconclusive: 0.398 µM [inhibitor, full curve, poor fit] |
| Cc1cc(NC(=O)/C=C\C(=O)O)c([N+](=O)[O-])cc1C | inconclusive: 79.4 µM [inhibitor, single point] |
| COc1ccc(C(C)NC(=S)NC2CCCC2)cc1OC (stereo not drawn) | inconclusive: 44.7 µM [inhibitor, partial curve, poor fit] |
| S=C(NCCCc1cnc[nH]1)NCCCN(Cc1ccccc1)c1ccc(Br)cn1 | inconclusive: 44.7 µM [inhibitor, partial curve, poor fit] |
| Cc1ccccc1OCCn1cc(C(=S)N2CCN(C)CC2)c2ccccc21 | inconclusive: 50.1 µM [inhibitor, single point] |
| COc1ccc(-c2[nH]nc3c2C(c2ccc(F)cc2)C2=C(CC(C)(C)CC2=O)N3)cc1 (stereo not drawn) | inconclusive: 31.6 µM [inhibitor, partial curve, poor fit] |
| Cc1ccc(S(=O)(=O)NC2CC(C)(C)NC(C)(C)C2)c(C)c1C | inactive |
| Oc1cc(O)cc(C=Cc2ccc(O)c(O)c2)c1 | active: 12.6 µM and active: 3.06 µM |
| Brc1ccc2[nH]c3c(c2c1)CCCCC3 | inconclusive: 50.1 µM [inhibitor, single point] |
| CC(C)C(O)(C#CCN1CCCC1)c1ccccc1 (stereo not drawn) | inconclusive: 35.5 µM [inhibitor, single point] |
| CC(=O)NCCC(=O)N1Cc2ccccc2CC2(CCCCN2CC2CCNC2)C1 (stereo not drawn) | inconclusive: 7.94 µM [inhibitor, full curve, poor fit] |
| CCOC(=O)Cc1c(C)c2c(C)[nH]nc2oc1=O | inactive |
| COc1ccccc1-c1ncc2c(n1)OCCN(c1cccc(C(F)(F)F)c1)C2=O | inconclusive: 28.2 µM [inhibitor, full curve, poor fit] |

Some of the entries above, set out differently:
Cc1ccc(/C=C/C(=O)c2c(C)nc3ccc(Cl)cc3c2-c2ccccc2)o1
  Potency: inconclusive: 1.58 µM [inhibitor, full curve, poor fit]
O=c1c2sccc2[nH]c(=S)n1-c1ccccc1
  Potency: inconclusive: 50.1 µM [inhibitor, partial curve, poor fit]
